Measured data: PubChem BioAssay AID493246 (Drosophila RNAi Screening Center, 2011)
Purpose: 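Identify essential fly genes by loss of cell viability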 (primary screen). Cell system: Drosophila Kc and S2R+ cells. Reagent: long dsRNA against Drosophila genes. Read-out: 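Cell number per well after knock-down, printed as raw plate values; calls were based on per-plate z-scores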. Direction: Kc cell number and S2R+ cell number: higher = more cells remaining. Call rule: 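Active when the per-plate z-score of cell number is 3 or more in the direction of fewer cells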.
The deposit covers about 21,000 reagents; shown is a random part of those with a known target gene and a result. Over the whole deposit, 429 (2%) were called active. 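Values are raw and not normalised between plates; calls rest on per-plate z-scores that were not deposited.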 Entries without a mark were called inactive. Not stated in the record: the amount of reagent, the time to read-out.

{"gene":"Cap-H2","amplicon":"DRSC14908","Kc cell number, rep 1":1.76e6,"Kc cell number, rep 2":1.81e6,"S2R+ cell number, rep 1":1.28e6,"S2R+ cell number, rep 2":1.45e6}
{"gene":"SIFa","amplicon":"DRSC04480","Kc cell number, rep 1":1.58e6,"Kc cell number, rep 2":1.61e6,"S2R+ cell number, rep 1":1.26e6,"S2R+ cell number, rep 2":1.52e6}
{"gene":"FeCH","amplicon":"DRSC16948","Kc cell number, rep 1":4.73e5,"S2R+ cell number, rep 1":7.99e5}
{"gene":"anne","amplicon":"DRSC17103","Kc cell number, rep 1":1.73e6,"Kc cell number, rep 2":1.58e6,"S2R+ cell number, rep 1":1.11e6,"S2R+ cell number, rep 2":1.24e6}
{"gene":"CG9992","amplicon":"DRSC20226","Kc cell number, rep 1":6.57e5,"S2R+ cell number, rep 1":9.40e5}
{"gene":"CG3528","amplicon":"DRSC00611","Kc cell number, rep 1":1.44e6,"Kc cell number, rep 2":1.53e6,"S2R+ cell number, rep 1":1.05e6,"S2R+ cell number, rep 2":1.20e6}
{"gene":"LysX","amplicon":"DRSC08678","Kc cell number, rep 1":1.36e6,"Kc cell number, rep 2":1.40e6,"S2R+ cell number, rep 1":9.80e5,"S2R+ cell number, rep 2":1.26e6}

Targets listed so far whose target name starts with C or c (3):
{"gene":"Cap-H2","amplicon":"DRSC14908","Kc cell number, rep 1":1.76e6,"Kc cell number, rep 2":1.81e6,"S2R+ cell number, rep 1":1.28e6,"S2R+ cell number, rep 2":1.45e6}
{"gene":"CG9992","amplicon":"DRSC20226","Kc cell number, rep 1":6.57e5,"S2R+ cell number, rep 1":9.40e5}
{"gene":"CG3528","amplicon":"DRSC00611","Kc cell number, rep 1":1.44e6,"Kc cell number, rep 2":1.53e6,"S2R+ cell number, rep 1":1.05e6,"S2R+ cell number, rep 2":1.20e6}

Additional records follow.
{"gene":"CG11710","amplicon":"DRSC20485","Kc cell number, rep 1":1.45e6,"Kc cell number, rep 2":1.40e6,"S2R+ cell number, rep 1":9.80e5,"S2R+ cell number, rep 2":1.06e6}
{"gene":"Cpr73D","amplicon":"DRSC11084","Kc cell number, rep 1":1.58e6,"Kc cell number, rep 2":1.60e6,"S2R+ cell number, rep 1":1.36e6,"S2R+ cell number, rep 2":1.35e6}
{"gene":"CG8841","amplicon":"DRSC07286","Kc cell number, rep 1":1.46e6,"Kc cell number, rep 2":1.55e6,"S2R+ cell number, rep 1":1.20e6,"S2R+ cell number, rep 2":1.25e6}
{"gene":"Tsf2","amplicon":"DRSC09751","Kc cell number, rep 1":1.47e6,"Kc cell number, rep 2":1.68e6,"S2R+ cell number, rep 1":1.30e6,"S2R+ cell number, rep 2":1.19e6}
{"gene":"SerT","amplicon":"DRSC04655","Kc cell number, rep 1":1.58e6,"Kc cell number, rep 2":1.58e6,"S2R+ cell number, rep 1":1.15e6,"S2R+ cell number, rep 2":1.25e6}
{"gene":"CG1137","amplicon":"DRSC12529","Kc cell number, rep 1":1.36e6,"Kc cell number, rep 2":1.50e6,"S2R+ cell number, rep 1":1.22e6,"S2R+ cell number, rep 2":1.35e6}
{"gene":"GILT1","amplicon":"DRSC16565","Kc cell number, rep 1":1.49e6,"Kc cell number, rep 2":1.67e6,"S2R+ cell number, rep 1":1.30e6,"S2R+ cell number, rep 2":1.73e6}
